In ChEMBL document CHEMBL1145965, “4-Substituted 4-hydroxycyclohexa-2,5-dien-1-ones with selective activities against colon and renal cancer cell lines” (J Med Chem, 2003):

Experiments:
Type in all cases: functional
[1] = test system: Panel NCI-60 (60 carcinoma cell lines); experiment: In vitro mean growth inhibitory activity against 60-cell panel; details: Homo sapiens
[2] = test system: Panel NCI-60 (60 carcinoma cell lines); experiment: In vitro mean growth lethal concentration against 60-cell panel; details: Homo sapiens, read-out: Mean LC50
[3] = test system: Panel NCI-60 (60 carcinoma cell lines); experiment: In vitro mean growth lethal concentration in colon subpanel against 60-cell panel; details: Homo sapiens, read-out: Mean LC50
[4] = test system: Panel NCI-60 (60 carcinoma cell lines); experiment: In vitro mean growth lethal concentration in renal subpanel against 60-cell panel; details: Homo sapiens, read-out: Mean LC50
[5] = test system: ACHN; experiment: In vitro lethal concentration against most sensitive ACHN cell line; details: Homo sapiens, read-out: LC50 (the source's name)
[6] = test system: HCT-116; experiment: In vitro lethal concentration against most sensitive colon HCT116 cell line; details: Homo sapiens, read-out: LC50 (the source's name)
[7] = test system: SW-620; experiment: In vitro lethal concentration against least sensitive colon SW-620 cell line; details: Homo sapiens, read-out: LC50 (the source's name)

OC1(c2nc3ccccc3s2)CCC2(CC1)OCCO2
> 100 µM: GI50 [1] | CC50 [2] | CC50 [3] | CC50 [4] | CC50 [5] | CC50 [6] | CC50 [7]
